The values that follow come from publication PMC11573613.

Sequences of proteins named here, by UniProt entry; tags and fusion partners are left off. A change or cut given only in a name is not applied to a line headed by its entry. Residues count along the entry.
UniProt Q49AH0, residues 25-187: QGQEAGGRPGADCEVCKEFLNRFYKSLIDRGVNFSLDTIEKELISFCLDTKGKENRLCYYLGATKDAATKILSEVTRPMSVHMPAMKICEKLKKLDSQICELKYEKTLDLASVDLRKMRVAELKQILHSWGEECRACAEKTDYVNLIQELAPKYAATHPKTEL
UniProt P61224: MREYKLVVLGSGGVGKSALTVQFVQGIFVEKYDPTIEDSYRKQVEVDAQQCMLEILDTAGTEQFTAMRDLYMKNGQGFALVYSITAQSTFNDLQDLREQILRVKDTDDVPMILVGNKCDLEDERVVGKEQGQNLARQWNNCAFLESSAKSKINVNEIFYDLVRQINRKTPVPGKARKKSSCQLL
UniProt P06396, residues 28-782: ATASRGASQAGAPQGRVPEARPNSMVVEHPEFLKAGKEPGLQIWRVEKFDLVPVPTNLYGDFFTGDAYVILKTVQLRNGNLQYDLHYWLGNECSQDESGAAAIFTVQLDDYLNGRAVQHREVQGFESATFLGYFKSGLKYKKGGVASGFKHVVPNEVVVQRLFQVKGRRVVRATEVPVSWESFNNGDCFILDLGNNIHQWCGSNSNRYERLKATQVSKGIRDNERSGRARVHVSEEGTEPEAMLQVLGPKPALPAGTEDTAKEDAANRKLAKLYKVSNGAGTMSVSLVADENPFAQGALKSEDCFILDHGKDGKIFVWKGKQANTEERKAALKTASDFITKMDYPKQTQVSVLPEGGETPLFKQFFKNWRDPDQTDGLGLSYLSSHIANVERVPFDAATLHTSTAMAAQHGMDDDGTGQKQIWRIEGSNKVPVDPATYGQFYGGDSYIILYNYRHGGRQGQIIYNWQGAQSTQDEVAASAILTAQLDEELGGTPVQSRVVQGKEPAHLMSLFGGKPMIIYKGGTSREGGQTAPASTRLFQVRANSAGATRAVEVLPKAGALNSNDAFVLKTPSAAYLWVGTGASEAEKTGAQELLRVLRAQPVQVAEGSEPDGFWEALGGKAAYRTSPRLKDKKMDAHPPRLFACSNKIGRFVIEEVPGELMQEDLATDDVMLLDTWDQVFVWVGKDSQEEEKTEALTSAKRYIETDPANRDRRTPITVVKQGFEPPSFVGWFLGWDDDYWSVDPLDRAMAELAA
UniProt Q13418: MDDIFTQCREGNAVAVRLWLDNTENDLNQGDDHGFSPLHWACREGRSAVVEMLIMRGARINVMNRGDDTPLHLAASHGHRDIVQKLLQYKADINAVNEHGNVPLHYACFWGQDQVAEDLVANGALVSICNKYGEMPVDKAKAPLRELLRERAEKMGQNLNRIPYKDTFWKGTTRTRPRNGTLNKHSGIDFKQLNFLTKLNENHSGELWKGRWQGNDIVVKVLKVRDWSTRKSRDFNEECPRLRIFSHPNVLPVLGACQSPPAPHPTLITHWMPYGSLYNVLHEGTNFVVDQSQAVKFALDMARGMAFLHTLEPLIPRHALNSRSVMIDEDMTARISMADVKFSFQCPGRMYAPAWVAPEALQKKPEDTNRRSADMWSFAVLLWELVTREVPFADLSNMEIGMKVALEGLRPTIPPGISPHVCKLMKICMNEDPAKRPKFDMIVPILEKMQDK
UniProt O14950: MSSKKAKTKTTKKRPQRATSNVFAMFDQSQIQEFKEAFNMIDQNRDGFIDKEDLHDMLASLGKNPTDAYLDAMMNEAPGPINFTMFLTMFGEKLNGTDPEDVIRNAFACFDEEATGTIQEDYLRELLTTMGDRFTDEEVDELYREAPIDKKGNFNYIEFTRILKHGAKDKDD
UniProt P01127: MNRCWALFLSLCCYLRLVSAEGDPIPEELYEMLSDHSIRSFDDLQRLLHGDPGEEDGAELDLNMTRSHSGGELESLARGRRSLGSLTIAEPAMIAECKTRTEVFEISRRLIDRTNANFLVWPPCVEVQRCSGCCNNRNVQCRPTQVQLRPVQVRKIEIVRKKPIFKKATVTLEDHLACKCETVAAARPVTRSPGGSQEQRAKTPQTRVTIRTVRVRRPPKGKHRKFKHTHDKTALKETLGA
UniProt Q9Y490: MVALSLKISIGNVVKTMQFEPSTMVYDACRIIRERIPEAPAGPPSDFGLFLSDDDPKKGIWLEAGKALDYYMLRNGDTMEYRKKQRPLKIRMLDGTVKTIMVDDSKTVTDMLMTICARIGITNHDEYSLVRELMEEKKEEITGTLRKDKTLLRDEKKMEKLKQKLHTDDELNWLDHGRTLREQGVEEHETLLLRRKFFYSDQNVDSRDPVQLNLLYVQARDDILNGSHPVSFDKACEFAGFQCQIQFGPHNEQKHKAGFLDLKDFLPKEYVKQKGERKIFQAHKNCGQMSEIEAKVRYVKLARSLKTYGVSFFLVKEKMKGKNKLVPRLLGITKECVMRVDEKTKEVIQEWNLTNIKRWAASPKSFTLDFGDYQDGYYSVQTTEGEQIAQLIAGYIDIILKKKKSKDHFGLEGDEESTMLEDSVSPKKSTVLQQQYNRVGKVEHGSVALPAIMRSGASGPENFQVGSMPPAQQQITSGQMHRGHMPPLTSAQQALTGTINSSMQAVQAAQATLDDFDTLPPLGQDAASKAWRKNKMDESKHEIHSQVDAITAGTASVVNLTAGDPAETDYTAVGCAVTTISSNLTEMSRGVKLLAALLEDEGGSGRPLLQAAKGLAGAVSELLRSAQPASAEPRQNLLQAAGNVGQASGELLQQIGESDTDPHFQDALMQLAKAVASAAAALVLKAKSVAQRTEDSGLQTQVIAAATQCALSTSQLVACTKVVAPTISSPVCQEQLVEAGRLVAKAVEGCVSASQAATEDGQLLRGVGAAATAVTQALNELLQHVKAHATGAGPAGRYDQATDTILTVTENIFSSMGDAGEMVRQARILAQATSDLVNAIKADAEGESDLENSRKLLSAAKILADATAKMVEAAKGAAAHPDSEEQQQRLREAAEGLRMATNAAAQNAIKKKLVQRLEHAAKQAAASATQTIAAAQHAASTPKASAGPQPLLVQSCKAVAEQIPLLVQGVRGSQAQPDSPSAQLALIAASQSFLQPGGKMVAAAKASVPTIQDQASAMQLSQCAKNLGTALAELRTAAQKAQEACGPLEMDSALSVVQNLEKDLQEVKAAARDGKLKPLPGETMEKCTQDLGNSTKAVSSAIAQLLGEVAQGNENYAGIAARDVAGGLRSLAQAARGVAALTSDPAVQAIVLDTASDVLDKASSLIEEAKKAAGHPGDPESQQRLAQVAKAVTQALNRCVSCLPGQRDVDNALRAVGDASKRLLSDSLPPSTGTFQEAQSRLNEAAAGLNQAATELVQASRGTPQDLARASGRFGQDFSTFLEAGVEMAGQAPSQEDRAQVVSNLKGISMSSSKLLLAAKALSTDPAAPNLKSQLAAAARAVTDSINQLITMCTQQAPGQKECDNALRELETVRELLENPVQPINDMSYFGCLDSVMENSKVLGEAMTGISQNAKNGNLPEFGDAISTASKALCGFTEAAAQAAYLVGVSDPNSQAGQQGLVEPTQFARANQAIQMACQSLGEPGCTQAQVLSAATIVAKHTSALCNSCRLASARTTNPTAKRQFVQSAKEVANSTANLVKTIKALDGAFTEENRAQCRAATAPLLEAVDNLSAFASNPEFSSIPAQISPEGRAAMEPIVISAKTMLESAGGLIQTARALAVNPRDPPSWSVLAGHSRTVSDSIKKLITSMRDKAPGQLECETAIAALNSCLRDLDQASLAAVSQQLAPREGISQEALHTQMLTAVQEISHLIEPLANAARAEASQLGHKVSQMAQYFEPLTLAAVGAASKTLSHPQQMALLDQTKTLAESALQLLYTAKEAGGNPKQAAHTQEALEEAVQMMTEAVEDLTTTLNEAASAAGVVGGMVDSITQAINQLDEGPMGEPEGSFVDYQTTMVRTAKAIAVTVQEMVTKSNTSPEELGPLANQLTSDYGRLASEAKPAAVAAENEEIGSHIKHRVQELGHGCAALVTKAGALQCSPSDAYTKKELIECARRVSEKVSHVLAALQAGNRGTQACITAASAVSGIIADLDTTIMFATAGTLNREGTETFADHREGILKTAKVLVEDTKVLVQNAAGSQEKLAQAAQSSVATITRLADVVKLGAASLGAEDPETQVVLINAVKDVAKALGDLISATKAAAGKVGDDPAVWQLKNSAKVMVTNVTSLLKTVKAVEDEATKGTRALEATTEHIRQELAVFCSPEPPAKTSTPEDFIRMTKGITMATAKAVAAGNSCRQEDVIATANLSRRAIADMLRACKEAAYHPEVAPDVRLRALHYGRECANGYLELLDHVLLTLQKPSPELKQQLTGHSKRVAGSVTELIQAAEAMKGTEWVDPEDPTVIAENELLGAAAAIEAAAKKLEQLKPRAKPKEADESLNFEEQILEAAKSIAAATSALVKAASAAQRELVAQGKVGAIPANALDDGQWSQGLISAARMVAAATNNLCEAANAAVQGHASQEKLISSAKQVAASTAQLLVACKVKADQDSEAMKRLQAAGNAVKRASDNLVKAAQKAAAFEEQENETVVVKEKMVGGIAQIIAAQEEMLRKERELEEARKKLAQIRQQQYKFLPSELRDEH
UniProt P50552: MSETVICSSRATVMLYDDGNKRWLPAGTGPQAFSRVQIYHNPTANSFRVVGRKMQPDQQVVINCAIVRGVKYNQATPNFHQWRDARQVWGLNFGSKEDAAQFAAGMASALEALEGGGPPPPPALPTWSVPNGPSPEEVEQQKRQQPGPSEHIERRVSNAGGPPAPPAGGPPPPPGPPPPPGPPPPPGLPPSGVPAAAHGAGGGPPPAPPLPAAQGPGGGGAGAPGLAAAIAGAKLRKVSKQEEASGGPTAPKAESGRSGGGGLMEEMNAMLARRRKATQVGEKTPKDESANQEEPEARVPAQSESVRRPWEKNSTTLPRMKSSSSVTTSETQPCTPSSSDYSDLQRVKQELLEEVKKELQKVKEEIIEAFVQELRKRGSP

These are yes or no findings as the source states them, for the method shown. In cells and extracts the contact can be indirect. These calls come from enrichment with a bait or labelling near it, and not all partners need be listed.

The assay concerns the target Recombinant human cerebral dopamine neurotrophic factor (CDNF) (human) (UniProt Q49AH0). The assay is described as follows: affinity purification with mass spectrometry; extracellularly applied CDNF immunoprecipitated with 4.8 μg rabbit monoclonal anti-human CDNF antibody from extracts of AA- and CDNF-treated human washed platelets; LC-MS of the precipitate.
“Ras-related protein 1b (Rap1b) (from UniProt P61224 1-184)”: the binding result is “binds”.

Consider “gelsolin (GSN) (from UniProt P06396 28-782)”, for which the binding entry is listed as “binds”.

On to “integrin-linked kinase (ILK) (from UniProt Q13418 1-452)”, for which the binding entry is given as “binds”.

“myosin regulatory light chain 12B (MYL12B) (from UniProt O14950 1-172)”: the binding result is given as “binds”.

Turning to “platelet-derived growth factor subunit B (PDGF-B) (from UniProt P01127)”, the binding entry was “binds”.

On to “talin 1 (TLN1) (from UniProt Q9Y490 1-2541)”, for which the binding entry is “binds”.

For “vasodilator-stimulated phosphoprotein (VASP) (from UniProt P50552 1-380)”, the binding entry is recorded as “binds”.
